Source: paper PMC4147360
Results are given in words; binding and its absence hold for the method and conditions named. Binding seen in cells or lysates may run through a third protein. Some binding calls cover weakened binding; strength is not graded here.

Chains of the proteins cited; added tags and fusions are not shown.
UniProt P15863: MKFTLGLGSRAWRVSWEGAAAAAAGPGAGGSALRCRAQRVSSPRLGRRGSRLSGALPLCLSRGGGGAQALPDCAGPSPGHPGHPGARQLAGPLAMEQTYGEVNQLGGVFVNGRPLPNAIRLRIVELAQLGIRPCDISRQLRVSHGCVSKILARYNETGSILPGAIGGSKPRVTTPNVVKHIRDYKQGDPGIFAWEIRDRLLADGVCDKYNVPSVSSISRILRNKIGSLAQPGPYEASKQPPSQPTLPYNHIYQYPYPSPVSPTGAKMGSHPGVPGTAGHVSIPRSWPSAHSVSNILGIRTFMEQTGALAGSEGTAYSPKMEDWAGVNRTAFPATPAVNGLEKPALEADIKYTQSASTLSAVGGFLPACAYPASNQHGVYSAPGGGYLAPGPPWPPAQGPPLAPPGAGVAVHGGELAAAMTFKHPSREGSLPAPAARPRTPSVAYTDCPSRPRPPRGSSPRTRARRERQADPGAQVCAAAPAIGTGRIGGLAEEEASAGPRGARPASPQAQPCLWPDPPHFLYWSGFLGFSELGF
UniProt P09084: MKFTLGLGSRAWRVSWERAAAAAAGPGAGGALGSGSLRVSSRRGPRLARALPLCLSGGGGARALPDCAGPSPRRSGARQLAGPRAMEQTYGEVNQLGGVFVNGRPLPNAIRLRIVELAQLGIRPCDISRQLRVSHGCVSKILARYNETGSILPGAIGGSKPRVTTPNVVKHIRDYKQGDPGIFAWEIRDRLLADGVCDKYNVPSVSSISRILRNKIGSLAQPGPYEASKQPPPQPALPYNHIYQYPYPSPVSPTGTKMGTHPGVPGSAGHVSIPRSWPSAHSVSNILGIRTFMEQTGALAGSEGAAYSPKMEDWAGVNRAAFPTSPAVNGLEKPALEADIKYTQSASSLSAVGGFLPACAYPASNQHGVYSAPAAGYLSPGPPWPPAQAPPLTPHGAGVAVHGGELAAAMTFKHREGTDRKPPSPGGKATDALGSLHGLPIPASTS
UniProt Q12778: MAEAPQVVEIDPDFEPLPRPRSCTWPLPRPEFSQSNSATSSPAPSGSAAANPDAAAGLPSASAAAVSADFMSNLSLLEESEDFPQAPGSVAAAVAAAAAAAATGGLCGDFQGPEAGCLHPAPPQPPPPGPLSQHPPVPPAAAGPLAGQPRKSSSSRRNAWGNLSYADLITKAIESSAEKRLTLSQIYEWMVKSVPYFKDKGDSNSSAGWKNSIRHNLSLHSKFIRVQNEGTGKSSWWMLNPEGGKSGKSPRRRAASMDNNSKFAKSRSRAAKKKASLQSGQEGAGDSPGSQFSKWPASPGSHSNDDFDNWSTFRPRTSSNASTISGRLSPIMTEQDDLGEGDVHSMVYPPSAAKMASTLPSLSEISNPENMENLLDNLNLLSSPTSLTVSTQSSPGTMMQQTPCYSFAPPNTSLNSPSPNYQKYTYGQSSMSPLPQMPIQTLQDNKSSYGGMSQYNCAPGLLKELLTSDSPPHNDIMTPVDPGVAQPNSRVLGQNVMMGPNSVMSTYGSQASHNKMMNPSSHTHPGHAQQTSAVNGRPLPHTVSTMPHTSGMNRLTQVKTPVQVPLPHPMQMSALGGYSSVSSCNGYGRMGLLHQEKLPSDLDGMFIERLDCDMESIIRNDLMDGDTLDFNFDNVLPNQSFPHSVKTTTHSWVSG

Assays:
[1] = biological target: Flag-tagged PAX1 cloned from human cDNA (human) (UniProt P15863); assay: co-IP; semiendogenous co-IP in HEK293FT cells transfected with 2 ug Flag-tagged PAX1; with or without CoCl2 (hypoxia mimetic, 14 h), interaction strengthened dose-dependently
[2] = biological target: Flag-tagged PAX1 cloned from human cDNA (human) (UniProt P15863); assay: co-IP; HEK293FT cells co-transfected with Myc-tagged FOXO1 and a Flag-tagged Pax protein; lysate immunoprecipitated with anti-Flag M2 affinity resin, immunoblotted; also after CoCl2 (2, 20, 200, 400 umol/L, 14 h), which strengthened the PAX1-FOXO1 interaction
[3] = biological target: Flag-tagged mouse Pax1 (mouse) (UniProt P09084); assay: as above

Row | binding [1] | binding [2] | binding [3] | Substance
1 | binds |  |  | FOXO1, endogenous in HEK293FT cells (from UniProt Q12778 1-655)
2 |  | binds | binds | Myc-tagged FOXO1 (from UniProt Q12778 1-655)
